Test [1] concerns the target human AC5 linked by the N-terminus to the N-terminal BiFC fragment of the Venus fluorescent protein (VN155-AC5) (human) (UniProt O95622). The experiment in a line: split reporter; BiFC (Venus VN155 + VC155) in living CAD VN-AC5/D2L cells transfected with 1 μg of VC plasmid; confocal images 48 h after transfection, line profile analysis.
Test [2] concerns the target T1, Endogenous NAPA (human (endogenous in HEK 293)) (UniProt P54920).
T1 sequence: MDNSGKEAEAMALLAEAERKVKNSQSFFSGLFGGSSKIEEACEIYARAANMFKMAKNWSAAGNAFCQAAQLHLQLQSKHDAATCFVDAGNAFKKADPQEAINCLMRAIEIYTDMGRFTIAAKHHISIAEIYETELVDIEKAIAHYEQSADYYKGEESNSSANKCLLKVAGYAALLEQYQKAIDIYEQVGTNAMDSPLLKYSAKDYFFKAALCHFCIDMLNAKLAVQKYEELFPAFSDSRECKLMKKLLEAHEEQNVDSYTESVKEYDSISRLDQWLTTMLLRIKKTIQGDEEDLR
Put plainly: condition: only cells treated with vehicle, without quinpirole; co-IP; endogenous NAPA immunoprecipitated from lysate of HEK AC5/D2L cells treated overnight with vehicle (no quinpirole); AC activity measured in the immunoprecipitate.

Protein sequences, listed by entry. Tags and fused reporters are not part of them. Lines headed by an entry give the natural chain unless they say otherwise; changes in a name come on top. Chains listed by the source or under a name are the forms on record and can include a tag or linker.
UniProt O95622: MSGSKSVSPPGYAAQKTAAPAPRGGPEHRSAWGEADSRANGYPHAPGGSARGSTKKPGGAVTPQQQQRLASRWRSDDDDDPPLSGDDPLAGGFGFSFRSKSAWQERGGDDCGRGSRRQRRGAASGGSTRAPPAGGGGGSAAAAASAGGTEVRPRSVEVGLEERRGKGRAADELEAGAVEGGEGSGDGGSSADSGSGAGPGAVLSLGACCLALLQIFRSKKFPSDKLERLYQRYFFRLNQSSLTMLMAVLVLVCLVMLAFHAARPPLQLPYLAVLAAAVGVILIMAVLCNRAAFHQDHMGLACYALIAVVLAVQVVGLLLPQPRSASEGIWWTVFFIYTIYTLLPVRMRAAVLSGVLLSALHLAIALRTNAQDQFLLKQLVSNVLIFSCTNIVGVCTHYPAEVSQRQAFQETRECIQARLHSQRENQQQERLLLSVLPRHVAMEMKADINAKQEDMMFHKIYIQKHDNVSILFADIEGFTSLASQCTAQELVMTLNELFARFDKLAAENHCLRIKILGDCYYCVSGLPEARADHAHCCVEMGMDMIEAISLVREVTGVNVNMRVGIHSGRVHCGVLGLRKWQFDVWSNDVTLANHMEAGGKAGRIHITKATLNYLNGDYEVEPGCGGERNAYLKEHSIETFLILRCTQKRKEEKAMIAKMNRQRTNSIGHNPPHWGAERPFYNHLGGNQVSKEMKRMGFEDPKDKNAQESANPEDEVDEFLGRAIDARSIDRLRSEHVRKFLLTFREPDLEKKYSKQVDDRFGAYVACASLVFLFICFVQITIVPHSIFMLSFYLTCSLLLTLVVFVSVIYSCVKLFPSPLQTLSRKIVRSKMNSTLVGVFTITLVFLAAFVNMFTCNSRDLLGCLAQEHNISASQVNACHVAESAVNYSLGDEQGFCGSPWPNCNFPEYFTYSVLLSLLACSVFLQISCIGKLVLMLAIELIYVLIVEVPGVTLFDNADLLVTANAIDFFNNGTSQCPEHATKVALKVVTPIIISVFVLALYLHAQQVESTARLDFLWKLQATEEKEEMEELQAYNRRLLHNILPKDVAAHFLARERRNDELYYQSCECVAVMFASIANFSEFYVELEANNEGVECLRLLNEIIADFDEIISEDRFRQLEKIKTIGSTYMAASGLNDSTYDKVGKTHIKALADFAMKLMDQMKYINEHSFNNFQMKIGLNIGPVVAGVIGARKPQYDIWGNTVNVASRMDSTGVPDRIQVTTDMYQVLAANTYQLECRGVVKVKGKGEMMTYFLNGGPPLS
UniProt P24588: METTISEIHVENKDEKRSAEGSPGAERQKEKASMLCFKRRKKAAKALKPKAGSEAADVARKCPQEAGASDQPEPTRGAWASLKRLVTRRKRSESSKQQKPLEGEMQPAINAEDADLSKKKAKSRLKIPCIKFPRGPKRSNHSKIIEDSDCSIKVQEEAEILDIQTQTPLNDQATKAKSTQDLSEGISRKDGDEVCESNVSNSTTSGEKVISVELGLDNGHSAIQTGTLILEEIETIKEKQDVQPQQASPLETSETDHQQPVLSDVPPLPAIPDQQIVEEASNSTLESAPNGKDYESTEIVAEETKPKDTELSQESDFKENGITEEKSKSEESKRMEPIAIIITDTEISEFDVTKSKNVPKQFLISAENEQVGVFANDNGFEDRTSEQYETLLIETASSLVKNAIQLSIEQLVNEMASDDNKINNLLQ
AKAP79^77–108-VC (P24588, form named): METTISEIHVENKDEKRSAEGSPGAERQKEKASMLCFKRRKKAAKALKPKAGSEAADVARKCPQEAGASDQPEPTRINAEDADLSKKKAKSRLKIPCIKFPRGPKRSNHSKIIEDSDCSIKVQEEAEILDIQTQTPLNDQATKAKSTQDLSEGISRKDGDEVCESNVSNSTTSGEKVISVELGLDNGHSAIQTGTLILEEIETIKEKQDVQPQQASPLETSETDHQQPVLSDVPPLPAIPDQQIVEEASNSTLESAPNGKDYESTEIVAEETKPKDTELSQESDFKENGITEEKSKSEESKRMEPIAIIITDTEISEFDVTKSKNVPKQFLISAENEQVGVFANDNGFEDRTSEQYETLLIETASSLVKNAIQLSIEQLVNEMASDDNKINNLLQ

Results are given in words; binding and its absence hold for the method and conditions named. In cells and extracts the contact can be indirect. Some binding calls cover weakened binding; strength is not graded here.

For AKAP79-VC (from UniProt P24588 1-427), the binding entry in test [1] is reported as “binds”.
Consider “AKAP79^77–108-VC (from UniProt P24588 1-427)”, for which the binding entry in test [1] is “no binding”.
Take “human AC type 5 (in HEK-AC5/D2L cells) (from UniProt O95622 1-1261) (enzyme)”: the binding entry in test [2] is “no binding”.
